We go through 118 substances from the supplement of paper PMC5949888.

Most values lie at the floor of the assay. Slopes are relative: functional sequences can read slightly below zero.

For this series, the system named is Saccharomyces cerevisiae PS128 hsf1 delta, HSF1(1-493) fusion. The experiment in a line: growth estimate (transactivation domain function in HSF1 fusion, heat-shock survival) (a.u. (slope of normalised read count over time)); higher = stronger growth at 37°C, i.e. more transactivation activity. The conditions noted are these: library: random library. As for the experimental part: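 Random 60-nt DNA library encoding peptides of up to 20 aa, fused to the C-terminus of yeast HSF1 residues 1-493 (C-terminal TAD deleted) and expressed from the native HSF1 promoter on a CEN plasmid in hsf1-deleted S. cerevisiae PS128. Cells were selected at 37°C on -trp 5-FOA plates for 0, 2, 4, 6 and 8 days and amplicons were sequenced. Growth estimate is the slope of a robust linear fit of total-sum-normalised read counts (normalised to the first time point) over time, using at least 2 replicates. Sequences are classed functional (TAD activity) above a threshold of -0.13, set from stop-codon control sequences.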
Consider NWILNVIKVLRKPDCYRKEL, for which the growth estimate is below -0.25.
The figure for GTISASHVIGPDALQGICAY is below -0.25.
For SEQMSPRR, the growth estimate was below -0.25.
In the case of ITLNAKTGNDW it was below -0.25.
For the substance SRVWPHLSNPCGYIDCAPLG, the growth estimate is below -0.25.
The figure for NRFYTMAVALVLRITLVSSV is below -0.25.
ASFALSSLLRISKGSNVRGE: the growth estimate is below -0.25.
Regarding LLR, the growth estimate is below -0.25.
As for YNVS, the growth estimate was below -0.25.
As for RDVVCHLRRGWVAVPIKRAF, the growth estimate is below -0.25.
The figure for RWYSRDRLWGERSGFSCHLS is below -0.25; for AYQLGV it is below -0.25.
In the case of VILCARSMRHRFTGRKSREL, the growth estimate is below -0.25.
For the substance AGRHA, the growth estimate was below -0.25.
For TRNRWYTPSEDDSDEISGRN, the growth estimate was below -0.25.
In the case of WRYDDQPDKLGAQTLGSLFM it was below -0.25; in that of ISDGRQ, below -0.25.
The figure for EYVRFRSLIKRDYVMNACFN is below -0.25; for ARCISKPY it is below -0.25.
In the case of DCGCKIRKYVCVQDEMDQRA it was below -0.25; in that of LPDCRHK, below -0.25.
On to HRKCHAERDVQL, for which the growth estimate is below -0.25.
In the case of SDREWPLDRPKVVVTFK it was below -0.25; in that of LDHGTQFFMGYLLTRSTVRT, below -0.25.
In the case of RVDAVCLHRG it was below -0.25; in that of IAGPEGRRALSWLFIEP, below -0.25; in that of ATKNVLLDGHISYHLAARYH, below -0.25.
As to TGRRGYTI, the growth estimate was below -0.25.
In the case of SQSGRIR it was below -0.25; in that of GLSV, below -0.25.
As to DPELLVTPCIAASGDMSVAM, the growth estimate is below -0.25.
RTLALKQSKYVSQSWYNSAS: the growth estimate is below -0.25.
The figure for LWGIGSGLYSGRMPYGTRIG is below -0.25; for GRGGLEGTT it is below -0.25; for DPTTTFERSVRVARTLANSP it is below -0.25.
The figure for GLAVSCGATRGFLNRGMVRG is below -0.25.
Consider IAWGFSGLGFTEDSRSCGWP, for which the growth estimate was 0.156.
In the case of VGPQGDCVAGVT it was below -0.25.
The figure for GRCG is below -0.25; for RFSPQSSPAY it is below -0.25.
In the case of YTNWQCIYDAQASTAQCLGR it was below -0.25.
In the case of SLGASVIQGGIRRRRDLRRA, the growth estimate was below -0.25.
The figure for WTCDNGV is below -0.25; for SNCA it is below -0.25.
For TVGITLKLVGVYQVAA, the growth estimate was below -0.25.
As to EFAVPVAWDRRSNISAVLAV, the growth estimate was below -0.25.
As for QLLSGNAEDTEVSGVYLTSN, the growth estimate is below -0.25.
In the case of SVSISLTGGAEVRVLTPRRA it was below -0.25.
For PRGTA, the growth estimate was below -0.25.
The figure for IDPETRDVRTFYYKTFLPAA is -0.246; for ILNLTRLLPFCASLMVENLA it is below -0.25; for CGGCISDISG it is below -0.25.
CVSLEFGRLHLQQQFDLWSS: the growth estimate was -0.0287.
ERW: the growth estimate is below -0.25.
The figure for VSAYRAVKMLLG is below -0.25.
In the case of ACKYHYRGC it was 0.0973.
In the case of LGGKHSEDLLVAEPE it was below -0.25.
Consider SVSTDPGFML, for which the growth estimate is below -0.25.
As for ITFGIGR, the growth estimate is -0.231.
Take VRSLVSNSEVTSSCAFATTR: the growth estimate was below -0.25.
LDACQDSVN: the growth estimate was below -0.25.
The figure for SRSGGSEVNSVADVGCLSWE is below -0.25.
In the case of IKASGTI it was below -0.25; in that of VGQLEATVAKSSRYNI, below -0.25; in that of RMNQCRRRCS, below -0.25.
The figure for QALKGNYLVTASWSYHD is below -0.25; for LVIEGLSVAPIEIRHCRPAA it is below -0.25.
On to LQQYRMIGRPETSAETQGY, for which the growth estimate is below -0.25.
For the substance ICWSIVGFVWTHKRLVLENM, the growth estimate was below -0.25.
In the case of RAWGVRMVMRIRTRD it was below -0.25; in that of HCPVNCGARYLP, below -0.25.
The figure for AESFYGGGYGK is below -0.25; for SIRTGN it is below -0.25.
The figure for IGDCWDVPMYTMCTVLIRHL is below -0.25; for FSLMVRLWFERPIMQSVPHV it is below -0.25; for SAIPGLPR it is below -0.25.
IGPFRVIHGAGYENSAPLTP: the growth estimate was below -0.25.
Consider LRV, for which the growth estimate is below -0.25.
The figure for FREVRRFGVKTRAYVTHLAY is below -0.25; for GVH it is below -0.25.
Consider NHCFTKKWGI, for which the growth estimate was below -0.25.
In the case of GTS it was below -0.25; in that of PGTCVE, below -0.25; in that of IAGQRRESGLDSLERRFIVP, below -0.25.
As to STYGY, the growth estimate is below -0.25.
For the substance SSRVL, the growth estimate is below -0.25.
For QIGPEWGEGSVRCLEPR, the growth estimate is below -0.25.
In the case of AGKGDTIALGTLVIS it was below -0.25; in that of EPECCPETHTAFYVYVKSSG, below -0.25.
The figure for ARCGLQSAVSIALVV is below -0.25; for LKRCVWAL it is below -0.25; for RYSSLCNRSGADNV it is below -0.25.
Consider CTAGDLVRIAVQFVPPLLSL, for which the growth estimate was below -0.25.
In the case of GRWFML it was below -0.25; in that of RLCYSLFRFSGVGSHFTSPP, below -0.25.
In the case of RRGF it was below -0.25; in that of LRSTDLVRDVHVG, below -0.25; in that of GRRVVLALRVALTPN, below -0.25.
Take IDIIRILWSIEGYRTTDRRT: the growth estimate is below -0.25.
The figure for GQDIQVDILGRPEFIHAAFD is below -0.25.
Turning to AGNDY, the growth estimate was below -0.25.
In the case of GSL it was below -0.25; in that of WAGGALHPAYVNHSV, below -0.25; in that of SRPQFPIGL, below -0.25.
The figure for VIMLDILA is below -0.25.
In the case of ALTQSHLWAIDWRGVYQNRG it was below -0.25.
Consider IACTYSNIVMVCQLATLKPS, for which the growth estimate is below -0.25.
In the case of RGI it was below -0.25; in that of SPAKCAGVG, below -0.25; in that of TSHGG, below -0.253.
As for LKLDG, the growth estimate is below -0.25.
On to RSSFRPITVMFMTGKPMTLH, for which the growth estimate was below -0.25.
Turning to ACNLRCRWGLRTESLLRWRM, the growth estimate is below -0.25.
In the case of TERVKFEVEA it was below -0.25.
The figure for LKGTSSGPLR is below -0.25.
As to QVDLPYRLII, the growth estimate is below -0.25.
In the case of LLYPLTGGQAQAPCSVTVNR it was below -0.25; in that of RLIQWRLSGAGHWIAKNPAR, below -0.25.
